# Non-standard residues stand in square brackets, D forms with d. No end group written: not given here. Sar = CNCC(=O)O
# Test: peptide synthesis
# Conditions: for final HPLC purity: RP-HPLC
# [1] = conjugation step, several disulfide bridges, sequence written open
substance,measurement,setting,value
A1-Msc-DOI-Gly-Phe-Phe-D-Ala-NH2,step yield,coupling step,53.9%
same,final HPLC purity,coupling step,95.1%
A1-Msc-DOI-Gly-Phe-Phe-Glu-NH2,step yield,coupling step,38.6%
same,final HPLC purity,coupling step,95.7%
"B1,B1′-Sub-DOI-Gly-Phe-Phe-D-Ala-NH2 dimer",final HPLC purity,[1],88.1%
same,conjugation yield,[1],11.9%
"B1,B1′-Sub-DOI-Gly-Phe-Phe-Glu-NH2 dimer",final HPLC purity,[1],>99%
same,conjugation yield,[1],15.8%
GFF[Sar]-NH2,isolated yield,whole synthesis,82.6%
same,final HPLC purity,whole synthesis,98.5%
GFF[dA]-NH2,isolated yield,whole synthesis,61.6%
same,final HPLC purity,whole synthesis,99.1%
Gly-Phe-Phe-Glu-NH2,isolated yield,whole synthesis,74.9%
same,final HPLC purity,whole synthesis,94.5%
